# Where a name gives a salt, the structure may show the parent alone. The list shows a part of the results. The calls rarely recur for the same compound in another form.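 Kinases, fused to nanoluciferase, were expressed in K562 cells; luminescence was measured every 4 h from 2 to 18 h as percent of control (DMSO = 100%, positive control = 0%). A time point is decreased if signal falls significantly (2 sigma). Hits were called by the authors by a rule that is not shown; the count of time points alone does not decide it.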
# The chains behind the UniProt entries cited, without tags or fusion partners. Where a name states a change or a piece, a line headed by the entry shows the natural chain unless it says otherwise.
# UniProt P53350, whole entry: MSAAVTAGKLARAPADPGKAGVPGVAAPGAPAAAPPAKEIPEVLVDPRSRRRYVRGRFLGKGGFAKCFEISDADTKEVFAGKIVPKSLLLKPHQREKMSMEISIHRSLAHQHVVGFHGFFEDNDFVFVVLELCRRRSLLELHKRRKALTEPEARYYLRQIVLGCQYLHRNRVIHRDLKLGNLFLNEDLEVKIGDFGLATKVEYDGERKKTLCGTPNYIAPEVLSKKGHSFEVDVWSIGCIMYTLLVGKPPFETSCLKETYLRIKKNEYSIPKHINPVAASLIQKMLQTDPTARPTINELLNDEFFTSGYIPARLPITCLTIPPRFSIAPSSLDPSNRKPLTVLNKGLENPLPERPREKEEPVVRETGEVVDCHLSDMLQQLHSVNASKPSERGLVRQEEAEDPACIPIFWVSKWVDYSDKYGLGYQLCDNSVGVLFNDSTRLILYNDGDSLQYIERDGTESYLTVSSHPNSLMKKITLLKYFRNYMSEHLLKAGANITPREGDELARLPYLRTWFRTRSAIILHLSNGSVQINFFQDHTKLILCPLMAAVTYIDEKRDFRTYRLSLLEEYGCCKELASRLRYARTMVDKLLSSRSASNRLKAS
# UniProt Q13131: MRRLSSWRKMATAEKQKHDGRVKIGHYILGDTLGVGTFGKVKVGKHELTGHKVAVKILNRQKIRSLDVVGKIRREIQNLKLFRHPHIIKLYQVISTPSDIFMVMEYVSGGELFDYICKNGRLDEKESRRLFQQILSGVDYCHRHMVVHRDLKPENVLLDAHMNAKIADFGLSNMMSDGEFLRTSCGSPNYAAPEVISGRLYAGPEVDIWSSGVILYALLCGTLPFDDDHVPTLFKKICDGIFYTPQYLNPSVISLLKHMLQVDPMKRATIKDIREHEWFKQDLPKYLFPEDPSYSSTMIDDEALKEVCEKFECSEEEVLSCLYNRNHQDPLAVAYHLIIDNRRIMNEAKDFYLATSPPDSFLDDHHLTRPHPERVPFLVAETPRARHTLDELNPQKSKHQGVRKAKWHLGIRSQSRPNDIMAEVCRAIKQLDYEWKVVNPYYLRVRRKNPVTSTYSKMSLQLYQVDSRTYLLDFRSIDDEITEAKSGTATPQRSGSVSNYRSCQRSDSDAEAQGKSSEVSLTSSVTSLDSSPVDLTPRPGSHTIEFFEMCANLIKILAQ
# UniProt Q14289, whole entry, looked up: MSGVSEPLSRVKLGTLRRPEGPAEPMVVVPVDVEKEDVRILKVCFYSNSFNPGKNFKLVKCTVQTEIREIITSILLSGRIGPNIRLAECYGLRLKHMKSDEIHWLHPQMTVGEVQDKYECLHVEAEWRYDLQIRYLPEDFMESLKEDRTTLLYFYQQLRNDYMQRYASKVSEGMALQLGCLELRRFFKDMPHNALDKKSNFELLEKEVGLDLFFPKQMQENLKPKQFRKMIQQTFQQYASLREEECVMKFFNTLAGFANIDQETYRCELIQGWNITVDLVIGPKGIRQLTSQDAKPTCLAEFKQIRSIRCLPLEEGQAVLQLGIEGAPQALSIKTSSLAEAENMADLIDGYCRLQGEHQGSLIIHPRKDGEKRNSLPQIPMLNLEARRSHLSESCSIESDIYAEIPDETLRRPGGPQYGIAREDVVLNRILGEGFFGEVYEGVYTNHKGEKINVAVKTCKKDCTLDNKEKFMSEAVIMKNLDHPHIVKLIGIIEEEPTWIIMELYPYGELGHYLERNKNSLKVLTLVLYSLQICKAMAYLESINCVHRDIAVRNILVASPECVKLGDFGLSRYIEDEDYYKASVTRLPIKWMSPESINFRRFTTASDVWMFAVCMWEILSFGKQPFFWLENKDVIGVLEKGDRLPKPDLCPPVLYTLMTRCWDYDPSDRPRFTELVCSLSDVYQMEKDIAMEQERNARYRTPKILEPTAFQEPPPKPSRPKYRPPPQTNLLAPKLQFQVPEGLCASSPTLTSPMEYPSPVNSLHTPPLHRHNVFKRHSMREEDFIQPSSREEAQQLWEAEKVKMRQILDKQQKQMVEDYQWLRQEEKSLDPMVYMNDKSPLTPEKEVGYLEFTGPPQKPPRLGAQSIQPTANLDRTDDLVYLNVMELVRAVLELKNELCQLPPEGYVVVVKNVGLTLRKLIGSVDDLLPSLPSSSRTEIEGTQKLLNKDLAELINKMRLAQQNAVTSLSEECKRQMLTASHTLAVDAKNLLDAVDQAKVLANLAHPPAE
# UniProt P07949, whole entry, looked up: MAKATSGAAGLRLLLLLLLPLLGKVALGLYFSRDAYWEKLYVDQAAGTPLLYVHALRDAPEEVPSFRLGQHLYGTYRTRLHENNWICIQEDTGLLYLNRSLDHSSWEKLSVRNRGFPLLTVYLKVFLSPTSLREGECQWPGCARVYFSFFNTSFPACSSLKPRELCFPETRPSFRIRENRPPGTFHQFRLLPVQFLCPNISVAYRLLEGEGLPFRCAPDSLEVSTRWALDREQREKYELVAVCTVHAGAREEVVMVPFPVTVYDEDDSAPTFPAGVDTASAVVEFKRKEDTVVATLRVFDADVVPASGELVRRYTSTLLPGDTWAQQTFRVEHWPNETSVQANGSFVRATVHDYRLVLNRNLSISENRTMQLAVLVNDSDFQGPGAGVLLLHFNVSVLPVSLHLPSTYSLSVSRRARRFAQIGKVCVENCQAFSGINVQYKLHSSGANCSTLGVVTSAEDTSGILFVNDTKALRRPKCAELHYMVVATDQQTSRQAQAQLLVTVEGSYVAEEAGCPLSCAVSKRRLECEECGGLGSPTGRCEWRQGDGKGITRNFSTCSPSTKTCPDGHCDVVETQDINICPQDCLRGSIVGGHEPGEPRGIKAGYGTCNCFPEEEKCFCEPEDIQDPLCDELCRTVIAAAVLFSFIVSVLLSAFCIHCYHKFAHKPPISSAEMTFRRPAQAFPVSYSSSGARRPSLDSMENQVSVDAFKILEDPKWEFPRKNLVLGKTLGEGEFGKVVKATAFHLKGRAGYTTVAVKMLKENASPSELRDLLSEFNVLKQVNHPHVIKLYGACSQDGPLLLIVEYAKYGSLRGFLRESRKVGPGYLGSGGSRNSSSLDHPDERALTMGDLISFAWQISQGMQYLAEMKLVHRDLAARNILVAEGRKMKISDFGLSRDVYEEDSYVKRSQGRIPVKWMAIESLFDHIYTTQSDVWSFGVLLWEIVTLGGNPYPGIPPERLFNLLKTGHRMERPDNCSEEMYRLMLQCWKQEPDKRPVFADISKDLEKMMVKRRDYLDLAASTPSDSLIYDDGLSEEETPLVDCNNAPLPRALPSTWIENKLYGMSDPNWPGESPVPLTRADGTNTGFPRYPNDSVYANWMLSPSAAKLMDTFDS
# UniProt P07949, whole entry M918T, looked up: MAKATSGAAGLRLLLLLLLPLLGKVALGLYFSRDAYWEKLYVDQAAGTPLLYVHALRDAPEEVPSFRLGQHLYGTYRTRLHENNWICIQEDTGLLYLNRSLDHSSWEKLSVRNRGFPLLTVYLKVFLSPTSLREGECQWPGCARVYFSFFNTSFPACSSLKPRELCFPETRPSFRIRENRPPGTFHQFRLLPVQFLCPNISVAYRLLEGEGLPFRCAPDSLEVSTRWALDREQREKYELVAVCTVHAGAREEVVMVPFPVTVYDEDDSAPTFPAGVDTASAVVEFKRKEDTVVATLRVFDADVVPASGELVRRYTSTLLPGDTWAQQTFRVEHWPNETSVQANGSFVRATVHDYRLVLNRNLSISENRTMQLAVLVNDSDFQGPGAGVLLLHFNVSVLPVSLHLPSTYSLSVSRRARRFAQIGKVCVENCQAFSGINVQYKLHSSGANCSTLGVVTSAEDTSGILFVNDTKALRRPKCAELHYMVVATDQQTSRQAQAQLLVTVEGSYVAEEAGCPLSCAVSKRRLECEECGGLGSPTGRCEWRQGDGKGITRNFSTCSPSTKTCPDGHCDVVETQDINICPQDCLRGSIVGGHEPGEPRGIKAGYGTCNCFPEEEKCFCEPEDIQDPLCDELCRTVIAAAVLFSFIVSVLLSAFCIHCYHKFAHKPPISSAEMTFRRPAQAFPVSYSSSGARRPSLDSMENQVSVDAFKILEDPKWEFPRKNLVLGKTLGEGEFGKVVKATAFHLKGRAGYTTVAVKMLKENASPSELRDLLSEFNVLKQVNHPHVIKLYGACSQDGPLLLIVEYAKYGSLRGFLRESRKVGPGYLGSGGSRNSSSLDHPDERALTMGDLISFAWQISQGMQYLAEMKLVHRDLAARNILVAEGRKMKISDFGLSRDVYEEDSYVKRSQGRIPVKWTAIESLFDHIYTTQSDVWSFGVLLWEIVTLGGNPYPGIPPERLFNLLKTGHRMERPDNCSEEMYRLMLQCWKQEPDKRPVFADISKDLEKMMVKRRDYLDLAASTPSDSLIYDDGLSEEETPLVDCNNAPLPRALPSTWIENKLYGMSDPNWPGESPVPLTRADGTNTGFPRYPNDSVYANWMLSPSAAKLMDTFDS
# UniProt Q01974, whole entry: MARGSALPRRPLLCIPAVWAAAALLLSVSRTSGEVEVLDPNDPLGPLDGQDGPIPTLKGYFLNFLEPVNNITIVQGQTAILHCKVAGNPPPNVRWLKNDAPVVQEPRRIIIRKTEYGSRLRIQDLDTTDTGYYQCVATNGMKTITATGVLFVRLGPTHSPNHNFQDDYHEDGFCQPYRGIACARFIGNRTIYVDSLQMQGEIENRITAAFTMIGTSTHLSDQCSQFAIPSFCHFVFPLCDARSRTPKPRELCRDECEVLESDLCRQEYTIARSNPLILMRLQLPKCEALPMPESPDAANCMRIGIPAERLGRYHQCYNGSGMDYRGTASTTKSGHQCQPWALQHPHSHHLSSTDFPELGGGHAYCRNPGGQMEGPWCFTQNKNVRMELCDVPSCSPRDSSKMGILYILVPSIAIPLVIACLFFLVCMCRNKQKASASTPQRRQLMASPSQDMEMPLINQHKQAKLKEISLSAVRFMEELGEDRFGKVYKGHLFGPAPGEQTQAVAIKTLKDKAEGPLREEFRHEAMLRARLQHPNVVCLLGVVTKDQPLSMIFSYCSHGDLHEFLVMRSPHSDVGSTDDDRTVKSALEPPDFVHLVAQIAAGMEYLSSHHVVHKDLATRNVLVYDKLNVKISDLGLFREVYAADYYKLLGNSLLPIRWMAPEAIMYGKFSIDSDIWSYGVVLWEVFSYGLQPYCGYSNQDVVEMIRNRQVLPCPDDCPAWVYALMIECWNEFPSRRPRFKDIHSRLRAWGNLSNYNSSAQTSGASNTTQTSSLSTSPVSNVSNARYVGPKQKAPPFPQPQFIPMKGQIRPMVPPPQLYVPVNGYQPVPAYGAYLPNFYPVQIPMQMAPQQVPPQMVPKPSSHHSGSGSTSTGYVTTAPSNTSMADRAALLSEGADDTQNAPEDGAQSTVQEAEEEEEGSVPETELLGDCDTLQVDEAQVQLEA
# UniProt Q9NYA1, whole entry: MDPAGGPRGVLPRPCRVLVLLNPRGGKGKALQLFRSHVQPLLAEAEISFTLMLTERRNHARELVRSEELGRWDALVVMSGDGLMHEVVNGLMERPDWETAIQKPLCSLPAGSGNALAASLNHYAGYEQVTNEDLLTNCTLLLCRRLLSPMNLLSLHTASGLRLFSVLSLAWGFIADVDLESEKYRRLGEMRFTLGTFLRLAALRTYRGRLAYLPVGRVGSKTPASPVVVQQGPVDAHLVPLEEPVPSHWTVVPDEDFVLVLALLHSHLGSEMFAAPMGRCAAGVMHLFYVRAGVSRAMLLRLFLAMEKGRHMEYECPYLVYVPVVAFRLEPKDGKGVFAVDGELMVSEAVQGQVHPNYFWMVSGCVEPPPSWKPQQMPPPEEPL
# UniProt Q9Y6E0: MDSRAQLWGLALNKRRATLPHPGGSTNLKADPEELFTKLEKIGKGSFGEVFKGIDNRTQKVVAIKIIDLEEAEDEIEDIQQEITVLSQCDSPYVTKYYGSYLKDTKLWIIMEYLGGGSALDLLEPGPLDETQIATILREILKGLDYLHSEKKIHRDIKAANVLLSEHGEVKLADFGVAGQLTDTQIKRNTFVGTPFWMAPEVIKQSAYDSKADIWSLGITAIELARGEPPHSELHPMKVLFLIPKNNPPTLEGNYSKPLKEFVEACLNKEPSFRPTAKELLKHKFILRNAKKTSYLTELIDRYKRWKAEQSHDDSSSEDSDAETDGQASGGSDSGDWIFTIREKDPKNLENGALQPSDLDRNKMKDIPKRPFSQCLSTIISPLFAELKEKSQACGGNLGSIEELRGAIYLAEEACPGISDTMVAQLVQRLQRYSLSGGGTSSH
# Experiments:
# Test in all cases: kinase-Nluc reporter destabilization hit call (1 = scored as downregulated) (binary); higher = compound decreases kinase abundance
# Settings in all cases: K562; 2-18 h
# [1] = target: PDPK1 (UniProt O15530)
# [2] = target: PIK4CA (UniProt P42356)
# [3] = target: PIK4CB (UniProt Q9UBF8)
# [4] = target: PLK1 (UniProt P53350)
# [5] = target: PRKAA1 (UniProt Q13131)
# [6] = target: PRKCA (UniProt P17252)
# [7] = target: PTK2 (UniProt Q05397)
# [8] = target: PTK2B (UniProt Q14289)
# [9] = target: RAF1 (UniProt P04049)
# [10] = target: RAF1_S257L (clone: RAF1_mut) (UniProt P04049)
# [11] = target: RET (UniProt P07949)
# [12] = target: RET_M918T (clone: RET_mut) (UniProt P07949)
# [13] = target: RIOK1 (UniProt Q9BRS2)
# [14] = target: RIPK1 (UniProt Q13546)
# [15] = target: RIPK2 (UniProt O43353)
# [16] = target: ROR2 (UniProt Q01974)
# [17] = target: RPS6KA1 (UniProt Q15418)
# [18] = target: SPHK1 (UniProt Q9NYA1)
# [19] = target: SRC (UniProt P12931)
# [20] = target: STK24 (UniProt Q9Y6E0)
Compound,kinase-Nluc reporter destabilization hit call [1],kinase-Nluc reporter destabilization hit call [2],kinase-Nluc reporter destabilization hit call [3],kinase-Nluc reporter destabilization hit call [4],kinase-Nluc reporter destabilization hit call [5],kinase-Nluc reporter destabilization hit call [6],kinase-Nluc reporter destabilization hit call [7],kinase-Nluc reporter destabilization hit call [8],kinase-Nluc reporter destabilization hit call [9],kinase-Nluc reporter destabilization hit call [10],kinase-Nluc reporter destabilization hit call [11],kinase-Nluc reporter destabilization hit call [12],kinase-Nluc reporter destabilization hit call [13],kinase-Nluc reporter destabilization hit call [14],kinase-Nluc reporter destabilization hit call [15],kinase-Nluc reporter destabilization hit call [16],kinase-Nluc reporter destabilization hit call [17],kinase-Nluc reporter destabilization hit call [18],kinase-Nluc reporter destabilization hit call [19],kinase-Nluc reporter destabilization hit call [20]
CN(CC(=O)N(Cc1ccc(C2CCCCC2)cc1)c1ccc(C(=O)NO)cc1)S(=O)(=O)c1c(F)c(F)c(F)c(F)c1F (2.5 µM),inactive: 0,inactive: 0,inactive: 0,inactive: 0,inactive: 0,inactive: 0,inactive: 0,inactive: 0,inactive: 0,inactive: 0,inactive: 0,inactive: 0,inactive: 0,inactive: 0,inactive: 0,inactive: 0,inactive: 0,inactive: 0,inactive: 0,inactive: 0
c1cncc(CN2CCC(n3ncc4c(N5CCOCC5)nc(-c5ccc6[nH]ccc6c5)nc43)CC2)c1 (10 µM),inactive: 0,inactive: 0,inactive: 0,inactive: 0,inactive: 0,inactive: 0,inactive: 0,inactive: 0,inactive: 0,inactive: 0,inactive: 0,inactive: 0,inactive: 0,inactive: 0,inactive: 0,inactive: 0,inactive: 0,inactive: 0,inactive: 0,inactive: 0
CN1CCC(c2cc(-c3ccncc3)c(-c3ccc(F)cc3)[nH]2)CC1 (10 µM),inactive: 0,inactive: 0,inactive: 0,inactive: 0,inactive: 0,inactive: 0,inactive: 0,inactive: 0,inactive: 0,inactive: 0,inactive: 0,inactive: 0,inactive: 0,inactive: 0,inactive: 0,inactive: 0,inactive: 0,inactive: 0,inactive: 0,inactive: 0
Cn1cnc2c(F)c(Nc3ccc(Br)cc3Cl)c(C(=O)NOCCO)cc21 [Selumetinib (sulfate)] (10 µM),inactive: 0,inactive: 0,inactive: 0,inactive: 0,inactive: 0,inactive: 0,inactive: 0,inactive: 0,inactive: 0,inactive: 0,inactive: 0,inactive: 0,inactive: 0,inactive: 0,inactive: 0,inactive: 0,inactive: 0,inactive: 0,inactive: 0,inactive: 0
CNC(=O)c1cc(COc2nnc(Nc3ccc(Cl)cc3)c3ccoc23)ccn1 [Telatinib] (10 µM),inactive: 0,inactive: 0,inactive: 0,inactive: 0,inactive: 0,inactive: 0,active: 1,inactive: 0,inactive: 0,inactive: 0,inactive: 0,inactive: 0,inactive: 0,inactive: 0,inactive: 0,inactive: 0,inactive: 0,inactive: 0,inactive: 0,inactive: 0
COc1ccc2c(OCc3nnc4ccc(-c5ccccc5)nn34)ccnc2c1 (2 µM),inactive: 0,inactive: 0,inactive: 0,inactive: 0,inactive: 0,inactive: 0,inactive: 0,inactive: 0,inactive: 0,inactive: 0,inactive: 0,inactive: 0,inactive: 0,inactive: 0,inactive: 0,inactive: 0,inactive: 0,inactive: 0,inactive: 0,inactive: 0
C[C@@H]1CC[C@@H](Nc2nc(NC(C)(C)C)ncc2C(N)=O)C[C@H]1O (10 µM),inactive: 0,inactive: 0,inactive: 0,inactive: 0,inactive: 0,inactive: 0,inactive: 0,inactive: 0,inactive: 0,inactive: 0,inactive: 0,inactive: 0,inactive: 0,inactive: 0,inactive: 0,inactive: 0,inactive: 0,inactive: 0,inactive: 0,inactive: 0
C=CC(=O)Nc1cccc(Nc2nc(Nc3ccc(N4CCN(C(C)=O)CC4)cc3OC)ncc2C(F)(F)F)c1 [Rociletinib hydrobromide] (10 µM),inactive: 0,inactive: 0,inactive: 0,inactive: 0,inactive: 0,inactive: 0,inactive: 0,inactive: 0,inactive: 0,inactive: 0,inactive: 0,inactive: 0,inactive: 0,inactive: 0,inactive: 0,inactive: 0,inactive: 0,inactive: 0,inactive: 0,inactive: 0
CC1(C)C(O[C@@H]2OC[C@@H](O)[C@H](O)[C@H]2O)CC[C@]23CC24CC[C@]2(C)[C@@H]([C@@]5(C)CC[C@@H](C(C)(C)O)O5)[C@H](O)C[C@@]2(C)C4C[C@@H](O[C@@H]2O[C@H](CO)[C@@H](O)[C@H](O)[C@H]2O)C13 (stereo not given in full) [Astragaloside IV] (10 µM),inactive: 0,inactive: 0,inactive: 0,inactive: 0,inactive: 0,inactive: 0,inactive: 0,inactive: 0,inactive: 0,inactive: 0,inactive: 0,inactive: 0,inactive: 0,inactive: 0,inactive: 0,inactive: 0,inactive: 0,inactive: 0,inactive: 0,inactive: 0
CCS(=O)(=O)Nc1ccc2[nH]c(O)c(C(=Nc3ccc(CN4CCCCC4)cc3)c3ccccc3)c2c1 [Hesperadin] (2.5 µM),inactive: 0,inactive: 0,inactive: 0,inactive: 0,inactive: 0,inactive: 0,inactive: 0,inactive: 0,inactive: 0,active: 1,inactive: 0,inactive: 0,inactive: 0,inactive: 0,inactive: 0,inactive: 0,inactive: 0,inactive: 0,inactive: 0,inactive: 0
COc1cc2c(N3CCN(C(=O)Nc4ccc(OC(C)C)cc4)CC3)ncnc2cc1OCCCN1CCCCC1 [Tandutinib] (10 µM),inactive: 0,inactive: 0,inactive: 0,inactive: 0,inactive: 0,inactive: 0,inactive: 0,inactive: 0,inactive: 0,inactive: 0,inactive: 0,inactive: 0,inactive: 0,inactive: 0,inactive: 0,inactive: 0,inactive: 0,inactive: 0,inactive: 0,inactive: 0
N#CCC1CCN(c2nc(Nc3ccc(N4CCC(O)CC4)cc3)c3c(=O)[nH]ncc3n2)CC1 [Gusacitinib] (10 µM),inactive: 0,inactive: 0,inactive: 0,inactive: 0,inactive: 0,inactive: 0,inactive: 0,inactive: 0,inactive: 0,inactive: 0,inactive: 0,inactive: 0,inactive: 0,inactive: 0,inactive: 0,inactive: 0,inactive: 0,inactive: 0,inactive: 0,inactive: 0
O=S(=O)(NCCCN1c2ccccc2CCc2ccc(Cl)cc21)c1ccc(OC(F)(F)F)cc1 (2.5 µM),inactive: 0,inactive: 0,inactive: 0,inactive: 0,inactive: 0,inactive: 0,inactive: 0,inactive: 0,inactive: 0,inactive: 0,inactive: 0,inactive: 0,inactive: 0,inactive: 0,inactive: 0,inactive: 0,inactive: 0,inactive: 0,inactive: 0,inactive: 0
C[C@H](c1ccnc(Nc2nc3ccc(-c4cc(N(C)C)ncn4)cc3[nH]2)c1)N1CCN(C(=O)CC(F)(F)F)CC1 (2.5 µM),inactive: 0,inactive: 0,inactive: 0,inactive: 0,inactive: 0,inactive: 0,inactive: 0,inactive: 0,inactive: 0,inactive: 0,inactive: 0,inactive: 0,inactive: 0,inactive: 0,inactive: 0,inactive: 0,inactive: 0,inactive: 0,inactive: 0,inactive: 0
CC(=O)NC1CC(n2cnc(NC(=O)Cc3ccc4ccccc4c3)c2)C1 (stereo not given) (10 µM),inactive: 0,inactive: 0,inactive: 0,inactive: 0,inactive: 0,inactive: 0,inactive: 0,inactive: 0,inactive: 0,inactive: 0,inactive: 0,inactive: 0,inactive: 0,inactive: 0,inactive: 0,inactive: 0,inactive: 0,inactive: 0,inactive: 0,inactive: 0
Nc1cc(C(F)(F)F)c(-c2cc(N3CCOCC3)nc(N3CCOCC3)n2)cn1 [Buparlisib (Hydrochloride)] (2.5 µM),inactive: 0,inactive: 0,inactive: 0,inactive: 0,inactive: 0,inactive: 0,inactive: 0,inactive: 0,inactive: 0,inactive: 0,inactive: 0,inactive: 0,inactive: 0,inactive: 0,inactive: 0,inactive: 0,inactive: 0,inactive: 0,inactive: 0,inactive: 0

# A few values from the results shown.
# Entry of C[C@H](c1ccnc(Nc2nc3ccc(-c4cc(N(C)C)ncn4)cc3[nH]2)c1)N1CCN(C(=O)CC(F)(F)F)CC1 (2.5 µM) under kinase-Nluc reporter destabilization hit call [1]: inactive: 0
# Entry of CN1CCC(c2cc(-c3ccncc3)c(-c3ccc(F)cc3)[nH]2)CC1 (10 µM) under kinase-Nluc reporter destabilization hit call [18]: inactive: 0

# Reference: the supplement of paper PMC12823440, “Inhibitors supercharge kinase turnover through native proteolytic circuits” (Nature, 2025)
